According to PubChem BioAssay AID248 (DTP/NCI, 2004):
The list is a part of this screen's results and no random one: it is rich in T/C values a quarter to a half above the control, in often repeated tests (any T/C) and in doses without a T/C. Further doses and runs are listed elsewhere. T/C is the treated group as % of the vehicle group. Some entries give survivors of the animals treated and no T/C: the source files T/C as zero there, which appears to mark a toxic dose or a test without result, not a measured value. Some doses without a T/C left all or most animals alive at the check, yet need not have been tolerated: survival well below the control is almost never listed, so the zero probably covers shortened survival too. Counts of survivors are from the toxicity check (mostly the fifth day) where no day follows; animals may have died later. Schedule codes are those of the source, read here as Q, the interval in days (D) or hours (H), X, the number of doses. Some schedule codes hold Z or #, which are not explained here. Where survival is the endpoint, this PubChem deposit counts one and a half times the control or more as active, and values a quarter to a half above the control carry no call in these data; other NCI protocols may use other cut-offs. Some entries hold several experiments; the values are given in rising order. Brackets with × count equal records among those shown. Some T/C values are followed by the survivors on the day toxicity was checked, most often the fifth; without a count, all were alive then.

System: L1210 leukemia ip in BDF1 mice, survival T/C
Test: NCI In Vivo Anticancer Drug Screen. Data for tumor model L1210 Leukemia (intraperitoneal) in B6D2F1 (BDF1) mice
Conditions: T/C endpoint: mean survival time, higher T/C = longer survival
[1] = dose: 50.0 mg/kg/injection, schedule: Q04DX003 (ip), vehicle: Klucel (hydroxypropylcellulose) (HPC)
[2] = dose: 400.0 mg/kg/injection, schedule: Q04DX003 (ip), vehicle: saline with Tween-80
[3] = dose: 200.0 mg/kg/injection, schedule: Q04DX002 (ip), vehicle: saline with Tween-80
[4] = dose: 400.0 mg/kg/injection, schedule: Q04DX002 (ip), vehicle: saline
[5] = dose: 200.0 mg/kg/injection, schedule: Q04DX003 (ip), vehicle: saline
[6] = dose: 400.0 mg/kg/injection, schedule: Q04DX003 (ip), vehicle: saline
[7] = dose: 400.0 mg/kg/injection, schedule: Q04DX002 (ip), vehicle: saline with Tween-80
[8] = dose: 100.0 mg/kg/injection, schedule: Q04DX003 (ip), vehicle: saline with Tween-80
[9] = dose: 200.0 mg/kg/injection, schedule: Q04DX003 (ip), vehicle: saline with Tween-80

Which T/C (dose: 15.0 mg/kg/injection, schedule: Q04DX003 (ip), vehicle: Klucel (hydroxypropylcellulose) (HPC)) does the source give for O=NN(CCCl)C(=O)NC1c2cc(Cl)ccc2-c2c(Cl)cc(Cl)cc21 (stereo not drawn) here?
The T/C was 144 % of control.

What about the T/C (dose: 23.0 mg/kg/injection, schedule: Q04DX003 (ip), vehicle: Klucel (hydroxypropylcellulose) (HPC)) of the same compound?
Its T/C is 147 % of control.

And the T/C (dose: 35.0 mg/kg/injection, schedule: Q04DX003 (ip), vehicle: Klucel (hydroxypropylcellulose) (HPC))?
The T/C was 127 % of control [5 of 6 alive].

What about the T/C [1] of the same compound?
Its T/C is 129 % of control.

And the T/C (dose: 75.0 mg/kg/injection, schedule: Q04DX003 (ip), vehicle: Klucel (hydroxypropylcellulose) (HPC))?
The T/C was 146 % of control.

What about the T/C (dose: 80.0 mg/kg/injection, schedule: Q04DX003 (ip), vehicle: Klucel (hydroxypropylcellulose) (HPC)) of the same compound?
Its T/C is 125 % of control.

And the T/C (dose: 100.0 mg/kg/injection, schedule: Q01DX001 (ip), vehicle: Klucel (hydroxypropylcellulose) (HPC))?
Its T/C is 127 % of control.

And the T/C (dose: 100.0 mg/kg/injection, schedule: Q04DX003 (ip), vehicle: Klucel (hydroxypropylcellulose) (HPC))?
Its T/C is 137 % of control [5 of 6 alive].

And the T/C (dose: 177.0 mg/kg/injection, schedule: Q01DX001 (ip), vehicle: Klucel (hydroxypropylcellulose) (HPC))?
The T/C was 133 % of control.

What about the T/C (dose: 177.0 mg/kg/injection, schedule: Q04DX003 (ip), vehicle: Klucel (hydroxypropylcellulose) (HPC)) of the same compound?
The T/C was 130 % of control.

What about the T/C (dose: 266.0 mg/kg/injection, schedule: Q01DX001 (ip), vehicle: Klucel (hydroxypropylcellulose) (HPC)) of the same compound?
Its T/C is 129 % of control.

What about the T/C (dose: 266.0 mg/kg/injection, schedule: Q04DX003 (ip), vehicle: Klucel (hydroxypropylcellulose) (HPC)) of the same compound?
Its T/C is 140 % of control.

And the T/C (dose: 400.0 mg/kg/injection, schedule: Q01DX001 (ip), vehicle: Klucel (hydroxypropylcellulose) (HPC))?
The T/C was 129 % of control.

Which survivor count [2] does the source give for N#CC12C(=O)C3C4C=CC(C4)C3C(=O)C1(C#N)C1C=CC2C1 (stereo not drawn) here?
Its survivor count is 0 of 3.

Which survivor count (dose: 100.0 mg/kg/injection, schedule: Q01DX009 (ip), vehicle: Klucel (hydroxypropylcellulose) (HPC)) does the source give for COc1cc(OC)c(NC(=S)Nc2ccccc2C(F)(F)F)cc1Cl here?
The survivor count was 6 of 6.

CC(C)P(=O)(CC(=O)O)c1ccccc1 (stereo not drawn) was tested. Which survivor count [3] did it give?
The survivor count was 3 of 3.

With CCSCCC#N as the compound, how does the survivor count [4] read?
Its survivor count is 1 of 3.

What does the source list for CC1CCCCN1CCCO (stereo not drawn)?
survivor count [5]: 0 of 6; survivor count [6]: 1 of 6

With Clc1cc(Cl)c2c(c1)Cc1cc(Cl)cc(N=Cc3ccc4c(c3)OCO4)c1-2 as the compound, how does the survivor count (dose: 400.0 mg/kg/injection, schedule: Q01DX009 (ip), vehicle: Klucel (hydroxypropylcellulose) (HPC)) read?
The survivor count was 3 of 6.

What does the source list for CCC(C)C(C(=O)OCCC[N+]1(C)CCCCC1)c1ccccc1 (stereo not drawn)?
survivor count (dose: 100.0 mg/kg/injection, schedule: Q04DX003 (ip), vehicle: saline): 3 of 6; survivor count [5]: 0 of 6; survivor count [6]: 0 of 6

What does the source list for [O-]/[N+](=N\O)c1ccc(/[N+]([O-])=N\O)cc1?
survivor count (dose: 100.0 mg/kg/injection, schedule: Q01DX009 (ip), vehicle: saline with Tween-80): 4 of 6; survivor count (dose: 200.0 mg/kg/injection, schedule: Q01DX009 (ip), vehicle: saline with Tween-80): 0 of 6; survivor count (dose: 400.0 mg/kg/injection, schedule: Q01DX001 (ip), vehicle: saline with Tween-80): 0 of 6

What does the source list for O=C(NC1CCCCC1)Oc1c(Cl)cc(Cl)c(Cl)c1[N+](=O)[O-]?
survivor count [3]: 0 of 3; survivor count [7]: 0 of 3

O=C(O)c1ccc(S(=O)(=O)Cl)cc1 was tested. Which survivor count (dose: 100.0 mg/kg/injection, schedule: Q04DX002 (ip), vehicle: Klucel (hydroxypropylcellulose) (HPC)) did it give?
Its survivor count is 3 of 3.

What about the survivor count (dose: 200.0 mg/kg/injection, schedule: Q04DX002 (ip), vehicle: Klucel (hydroxypropylcellulose) (HPC)) of the same compound?
Its survivor count is 3 of 3.

What about the survivor count (dose: 400.0 mg/kg/injection, schedule: Q04DX002 (ip), vehicle: Klucel (hydroxypropylcellulose) (HPC)) of the same compound?
Its survivor count is 2 of 3.

For CCCC(CNC1CCCCC1)OC(=O)c1ccc(N)cc1 (stereo not drawn), which survivor count (dose: 150.0 mg/kg/injection, schedule: Q01DX001 (ip), vehicle: other) is on record?
Its survivor count is 3 of 6.

And the survivor count (dose: 300.0 mg/kg/injection, schedule: Q01DX001 (ip), vehicle: other)?
Its survivor count is 0 of 6.

Which survivor count [7] does the source give for CC#CCCC(=O)OCCCCC here?
The survivor count was 3 of 3.

How did the T/C (dose: 21.0 mg/kg/injection, schedule: Q01DX009 (ip), vehicle: water) turn out when CC(C(=O)O)N(CC(=O)O)CC(=O)O.[Co+2].[NH-]CC(=O)O (stereo not drawn) was run?
Its T/C is 146 % of control.

And the survivor count (dose: 100.0 mg/kg/injection, schedule: Q01DX009 (ip), vehicle: water)?
Its survivor count is 5 of 6.

And the survivor count (dose: 200.0 mg/kg/injection, schedule: Q01DX009 (ip), vehicle: water)?
Its survivor count is 0 of 6.

What about the survivor count (dose: 400.0 mg/kg/injection, schedule: Q04DX003 (ip), vehicle: water) of the same compound?
The survivor count was 0 of 6.

O=C(O)C(F)(F)F was tested. Which survivor count (dose: 100.0 mg/kg/injection, schedule: Q01DX001 (ip), vehicle: water) did it give?
Its survivor count is 1 of 6.

COc1cc(\C=N/N=C/C=C/c2ccccc2)cc(OC)c1OC was tested. Which T/C [8] did it give?
Its T/C is 87, 88, 95 % of control.

What about the survivor count [8] of the same compound?
The survivor count was 3 of 3.

And the T/C [9]?
Its T/C is 90, 93, 95 % of control (2×).

With O=C1C=C(c2ccccc2)S(=O)(=O)C(c2ccccc2)=C1 as the compound, how does the survivor count (dose: 150.0 mg/kg/injection, schedule: Q01DX001 (ip), vehicle: carboxymethylcellulose (CMC)) read?
The survivor count was 2 of 6.

And the survivor count (dose: 300.0 mg/kg/injection, schedule: Q01DX001 (ip), vehicle: carboxymethylcellulose (CMC))?
Its survivor count is 0 of 6.

Which results are given for [N-]=[N+]=NC1=C(Cl)C(=O)c2ccccc2C1=O?
survivor count (dose: 100.0 mg/kg/injection, schedule: Q04DX002 (ip), vehicle: saline with Tween-80): 0 of 3; survivor count [3]: 0 of 3; survivor count [7]: 0 of 3

What does the source list for c1ccc([Si]2(c3ccccc3)[Si](c3ccccc3)(c3ccccc3)[Si](c3ccccc3)(c3ccccc3)[Si](c3ccccc3)(c3ccccc3)[Si](c3ccccc3)(c3ccccc3)[Si]2(c2ccccc2)c2ccccc2)cc1?
survivor count (dose: 25.6 mg/kg/injection, schedule: Q04DX002 (ip), vehicle: saline with Tween-80): 3 of 3; survivor count (dose: 64.0 mg/kg/injection, schedule: Q04DX002 (ip), vehicle: saline with Tween-80): 3 of 3

For CN(C)/C=C1\CCOC1=O, which survivor count [4] is on record?
Its survivor count is 1 of 3.

With O=NN(CCCl)C(=O)NC1CCC(CC2CCC(NC(=O)N(CCCl)N=O)CC2)CC1 (stereo not drawn) as the compound, how does the T/C (dose: 23.0 mg/kg/injection, schedule: Q01DX001 (ip), vehicle: gum acacia) read?
The T/C was 138 % of control.

With CC1(c2cccs2)NC(=O)N(Cl)C1=O (stereo not drawn) as the compound, how does the survivor count [9] read?
The survivor count was 6 of 6.

And the survivor count [2]?
The survivor count was 1 of 6.

CCc1cccc(CC)c1NC(=O)CS was tested. Which survivor count [2] did it give?
The survivor count was 1 of 6.

CC(O)C(C)(O)C(=O)O (stereo not drawn) was tested. Which survivor count (dose: 400.0 mg/kg/injection, schedule: Q01DX009 (ip), vehicle: saline) did it give?
The survivor count was 2 of 6.

What does the source list for NC(N)=N/N=C(/c1ccccc1)c1ccc(Cl)cc1?
survivor count (dose: 480.0 mg/kg/injection, schedule: Q01DX Z (ip), vehicle: saline): 5 of 6; T/C (dose: 480.0 mg/kg/injection, schedule: Q01DX Z (oral), vehicle: saline): 133 % of control

For O=[N+]([O-])C=C([SH2+])[SH2+].O=[N+]([O-])C=C([SH2+])[SH2+].[Ni+2].c1ccc(C[P+](c2ccccc2)(c2ccccc2)c2ccccc2)cc1, which survivor count (dose: 300.0 mg/kg/injection, schedule: Q04DX003 (ip), vehicle: saline) is on record?
The survivor count was 6 of 6.

COc1ccccc1-n1c(=O)c(N=Nc2ccccc2)c(O)n(-c2ccccc2Cl)c1=S was tested. Which survivor count [9] did it give?
The survivor count was 2 of 6.

For c1ccc2c3csc4ccccc4c-3nc2c1, which survivor count [1] is on record?
Its survivor count is 6 of 6.

And the survivor count (dose: 55.0 mg/kg/injection, schedule: Q01DX009 (ip), vehicle: Klucel (hydroxypropylcellulose) (HPC))?
Its survivor count is 6 of 6.

And the survivor count (dose: 80.0 mg/kg/injection, schedule: Q01DX009 (ip), vehicle: Klucel (hydroxypropylcellulose) (HPC))?
The survivor count was 0 of 6.

And the survivor count (dose: 100.0 mg/kg/injection, schedule: Q04DX003 (ip), vehicle: acetone)?
Its survivor count is 3 of 6.

And the survivor count (dose: 200.0 mg/kg/injection, schedule: Q04DX003 (ip), vehicle: acetone)?
The survivor count was 0 of 6.

What about the survivor count (dose: 400.0 mg/kg/injection, schedule: Q04DX003 (ip), vehicle: acetone) of the same compound?
The survivor count was 0 of 6.

For CC(=O)c1ccc(N=C=O)cc1, which survivor count (dose: 100.0 mg/kg/injection, schedule: Q01DX001 (ip), vehicle: saline with Tween-80) is on record?
The survivor count was 3 of 3.

And the survivor count (dose: 200.0 mg/kg/injection, schedule: Q01DX001 (ip), vehicle: saline with Tween-80)?
Its survivor count is 3 of 3.

For O=C(NCc1ccncc1)Nc1ccccc1Cl, which survivor count [4] is on record?
The survivor count was 2 of 3.
